Measured values taken from patent US7112698B2, “4-(c2-6alkoxy)-substituted chalcones as therapeutic agents” (Spear Therapeutics Limited, priority 2001, dated 2006).

Experiments:
[1] = tested on: MDA-468 advanced breast cancer cell line; test: MDA-468 tumour cell line cytotoxicity assay; assay type: cell-based, human
Procedure: (§1) Cells were maintained in RPMI 1640 with Glutamax 1 (Life Technologies) with 10% (v/v) heat inactivated foetal calf serum (Hybrimax. Sigma), at 37° C., 5% CO2/95% air with 100% humidity and passaged using trypsin/EDTA. 1×10^3 cells were plated out in 100 μl medium per well of 96-well flat-bottomed plates (Fisher). After 4 hours to allow adherance, 100 μl of medium containing TCDD (British Greyhound Chromatography; 10 μM stock in DMSO (dimethylsulfoxide)) or medium with 0.2% (v/v) DMSO as control was added to each well to give a final concentration of 10 nM TCDD, 0.1% (v/v) DMSO, for 24 hours to allow maximal CYP expression. The medium was then carefully aspirated and 100 μl fresh medium added. Within 30 minutes test compound was added in quadruplicate in 100 μl medium (with or without inhibitors) at double the final concentration from 100 mM stock in DMSO to give a final concentration of not more than 0.1% (v/v) DMSO, or DMSO solvent alone at 0.1% (v/v) as control. The cells were then allowed to grow on for 96 hours to give 80–90% confluence in the control wells. […] Plates were vortexed and the absorbance at 540 nm determined using a plate reader. […]
(§2) The tumour selectivity differential factor (TSDF) is calculated by dividing the IC50 obtained from the MCF-10A data by the IC50 obtained from the MDA-468 data.

[2] = tested on: MCF-10A normal breast cell line; test: MCF-10A normal cell line cytotoxicity assay; assay type: cell-based; conditions: Homo sapiens, without TCDD
Procedure: as §1, §2

Which IC50 ([1]; Homo sapiens, without TCDD) does the source give for `CC/C(=C(\c1ccccc1)c1ccc(OCCN(C)C)cc1)c1ccccc1` [Tamoxifen, tamoxifen] here?
Its IC50 is 4 µM.

What about the “Tumour Selectivity Differential Factor” value ([1]; IC50 MCF-10A divided by IC50 MDA-468 (Table 2)) of the same molecule?
The value was 1.6.

And the IC50 [2]?
The IC50 was 6.3 µM.
